No constants are given. Whether binding was seen depends on the method and setting. In cells and extracts the contact can be indirect. Some results given as binding are weak or reduced against the parent protein; the word gives no strength. For part of these data: Sequences can lack the tags named with a protein.
Assays:
Flag-USP36 (human) = biological target: T1, Flag-USP36 (human) (UniProt Q9P275); assay: co-IP; HEK293T cells co-transfected with 2 µg USP36 plasmid and full-length or mutant HA-ERα; after 24 h 10 μM MG132 for 6 h; NP-40 lysis buffer; IP with anti-Flag antibody, blot with anti-HA antibody
T1 sequence: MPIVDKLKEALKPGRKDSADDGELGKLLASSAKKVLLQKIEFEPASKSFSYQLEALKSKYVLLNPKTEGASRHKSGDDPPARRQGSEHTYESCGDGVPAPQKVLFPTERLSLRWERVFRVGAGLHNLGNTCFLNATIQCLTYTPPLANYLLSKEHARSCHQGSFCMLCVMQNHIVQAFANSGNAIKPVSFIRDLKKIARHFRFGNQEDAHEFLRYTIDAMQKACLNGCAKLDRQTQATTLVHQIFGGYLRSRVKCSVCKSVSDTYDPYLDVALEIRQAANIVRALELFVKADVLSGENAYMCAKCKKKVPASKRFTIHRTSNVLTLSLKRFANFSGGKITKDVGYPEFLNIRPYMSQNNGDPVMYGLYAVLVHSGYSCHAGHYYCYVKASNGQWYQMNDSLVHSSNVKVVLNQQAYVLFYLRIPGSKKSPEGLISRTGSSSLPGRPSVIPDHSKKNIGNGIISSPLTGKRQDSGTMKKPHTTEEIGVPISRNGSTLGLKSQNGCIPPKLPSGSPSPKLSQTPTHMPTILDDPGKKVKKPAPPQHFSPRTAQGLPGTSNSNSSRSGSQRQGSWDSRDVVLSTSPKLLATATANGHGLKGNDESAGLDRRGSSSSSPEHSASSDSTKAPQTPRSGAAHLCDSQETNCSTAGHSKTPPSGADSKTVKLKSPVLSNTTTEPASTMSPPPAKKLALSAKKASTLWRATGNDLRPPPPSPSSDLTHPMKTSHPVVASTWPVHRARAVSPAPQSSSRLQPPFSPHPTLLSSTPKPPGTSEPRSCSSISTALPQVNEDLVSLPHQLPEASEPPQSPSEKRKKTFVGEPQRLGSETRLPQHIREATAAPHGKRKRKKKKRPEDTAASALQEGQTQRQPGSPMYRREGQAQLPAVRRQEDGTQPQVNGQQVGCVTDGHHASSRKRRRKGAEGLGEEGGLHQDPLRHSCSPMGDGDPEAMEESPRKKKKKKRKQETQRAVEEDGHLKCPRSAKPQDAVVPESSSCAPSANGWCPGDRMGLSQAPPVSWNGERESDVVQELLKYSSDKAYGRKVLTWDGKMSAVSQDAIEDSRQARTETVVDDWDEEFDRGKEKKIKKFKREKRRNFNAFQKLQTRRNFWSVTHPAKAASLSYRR

The chains behind the UniProt entries cited, without tags or fusion partners.
UniProt P03372: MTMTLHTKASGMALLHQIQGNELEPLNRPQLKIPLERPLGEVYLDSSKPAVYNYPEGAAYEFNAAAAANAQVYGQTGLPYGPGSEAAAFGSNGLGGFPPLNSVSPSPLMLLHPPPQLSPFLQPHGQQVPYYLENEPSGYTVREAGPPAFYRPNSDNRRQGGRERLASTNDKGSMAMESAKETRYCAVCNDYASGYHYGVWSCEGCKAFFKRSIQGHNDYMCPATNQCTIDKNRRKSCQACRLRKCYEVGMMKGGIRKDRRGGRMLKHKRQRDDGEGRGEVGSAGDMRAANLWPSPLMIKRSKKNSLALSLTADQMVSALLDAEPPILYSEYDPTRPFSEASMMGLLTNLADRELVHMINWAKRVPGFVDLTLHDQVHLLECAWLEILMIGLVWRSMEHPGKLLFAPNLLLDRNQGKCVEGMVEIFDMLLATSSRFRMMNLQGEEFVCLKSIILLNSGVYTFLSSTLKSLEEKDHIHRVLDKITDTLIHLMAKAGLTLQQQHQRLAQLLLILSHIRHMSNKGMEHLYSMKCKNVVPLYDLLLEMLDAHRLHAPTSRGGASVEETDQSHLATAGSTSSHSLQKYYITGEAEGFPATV

[1] = biological target: Estrogen receptor α (ERα), endogenous (human (endogenous in MCF-7)) (UniProt P03372); assay: co-IP; endogenous proteins; lysates of MCF-7 cells precipitated with anti-ERα or anti-USP36 antibodies, precipitates immunoblotted with 2% input sample
full-length HA-ERα = full-length HA-ERα (UniProt P03372); assay: co-IP; IP with anti-HA antibody (HA-ERα), USP36 domains detected with anti-Flag antibody; cell line not named for this panel

## full-length HA-ERα (from UniProt P03372 1-595) (receptor)
Flag-USP36 (human)
  binding: binds

B1: Ubiquitin-specific peptidase 36 (USP36), endogenous (enzyme, UniProt Q9P275 1-1123)
chain: T1 sequence
[1]
  binding: binds

B2: Flag-USP36 deletion mutant (residues 1–420), USP domain (domain or fragment, UniProt Q9P275 1-420)
chain: MPIVDKLKEALKPGRKDSADDGELGKLLASSAKKVLLQKIEFEPASKSFSYQLEALKSKYVLLNPKTEGASRHKSGDDPPARRQGSEHTYESCGDGVPAPQKVLFPTERLSLRWERVFRVGAGLHNLGNTCFLNATIQCLTYTPPLANYLLSKEHARSCHQGSFCMLCVMQNHIVQAFANSGNAIKPVSFIRDLKKIARHFRFGNQEDAHEFLRYTIDAMQKACLNGCAKLDRQTQATTLVHQIFGGYLRSRVKCSVCKSVSDTYDPYLDVALEIRQAANIVRALELFVKADVLSGENAYMCAKCKKKVPASKRFTIHRTSNVLTLSLKRFANFSGGKITKDVGYPEFLNIRPYMSQNNGDPVMYGLYAVLVHSGYSCHAGHYYCYVKASNGQWYQMNDSLVHSSNVKVVLNQQAYVLFY
full-length HA-ERα
  binding: binds

Reference: PMC11365244
